In article PMC6416337:
These are yes or no findings as the source states them, for the method shown. In cells and extracts the contact can be indirect. Here binding means that the protein was enriched with, or labelled near, the bait; the list need not be complete. Tags and fused reporters may be left off the sequences shown.

Molecular target: T1, Flag-HA-SOS2 (Pro35S:Flag-HA-SOS2 in sos2-2) (Arabidopsis) (UniProt Q9LDI3)
T1 sequence: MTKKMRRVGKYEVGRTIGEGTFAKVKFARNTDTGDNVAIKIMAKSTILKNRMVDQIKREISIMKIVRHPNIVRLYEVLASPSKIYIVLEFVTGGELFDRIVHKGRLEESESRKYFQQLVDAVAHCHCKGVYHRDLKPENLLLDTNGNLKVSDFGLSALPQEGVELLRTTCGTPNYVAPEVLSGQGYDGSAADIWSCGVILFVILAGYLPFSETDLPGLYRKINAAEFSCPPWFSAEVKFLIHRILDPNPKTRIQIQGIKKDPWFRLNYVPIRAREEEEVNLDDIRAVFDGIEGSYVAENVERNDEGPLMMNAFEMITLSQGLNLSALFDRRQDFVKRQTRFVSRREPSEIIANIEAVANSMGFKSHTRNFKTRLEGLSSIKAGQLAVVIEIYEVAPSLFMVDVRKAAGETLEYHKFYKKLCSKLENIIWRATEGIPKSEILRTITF
Assay: affinity purification with mass spectrometry; tagged SOS2 immunoprecipitated with anti-HA-conjugated agarose from 10-day-old transgenic seedlings (sos2-2 background); IP buffer 10 mM Tris pH 7.5, 0.5% Nonidet P-40, 2 mM EDTA, 150 mM NaCl; LTQ Orbitrap Velos

B1: SOS2-LIKE PROTEIN KINASE5 (PKS5), endogenous (protein, UniProt O22932 1-435)
chain: MPEIEIAAGSGDNNDALFGKYELGKLLGCGAFAKVFHARDRRTGQSVAVKILNKKKLLTNPALANNIKREISIMRRLSHPNIVKLHEVMATKSKIFFAMEFVKGGELFNKISKHGRLSEDLSRRYFQQLISAVGYCHARGVYHRDLKPENLLIDENGNLKVSDFGLSALTDQIRPDGLLHTLCGTPAYVAPEILSKKGYEGAKVDVWSCGIVLFVLVAGYLPFNDPNVMNMYKKIYKGEYRFPRWMSPDLKRFVSRLLDINPETRITIDEILKDPWFVRGGFKQIKFHDDEIEDQKVESSLEAVKSLNAFDLISYSSGLDLSGLFAGCSNSSGESERFLSEKSPEMLAEEVEGFAREENLRMKKKKEEEYGFEMEGQNGKFGIGICISRLNDLLVVVEARRRGGDGDCYKEMWNGKLRVQLIRVCDQTSSTNAAI
binding: binds
